Record: PubChem BioAssay AID504804 (Drosophila RNAi Screening Center, 2011)

- Screen: 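Knock-downs shielding fly cells from apoptosis caused by DNA damage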 (primary screen)
- Cells: Drosophila Kc cells
- Knock-down reagent: long dsRNA against Drosophila genes, 0.5 µg dsRNA per well
- Timing: 96 h (48 h knock-down, then 48 h drug)
- Challenge: doxorubicin 5 µg/ml for 48 h, added 48 h after dsRNA
- Measurement: 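Luminescent ATP counts per replicate, not normalised, reflecting viable cells after 48 h dsRNA knock-down followed by 48 h of 5 µg/ml doxorubicin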
- Scale: raw ATP luminescence: higher = more viable cells, protection from doxorubicin
- Call rule: 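Active when both duplicate wells lie at least 2 SD above the plate mean and protection is confirmed by rescreening and independent dsRNAs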
In all, the deposit lists about 19,000 reagents; shown is an unselected part of those that have a named target and a result. Of all reagents, 47 (0.25%) were called active. 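Signals are raw, not normalised; exact z-scores behind calls not deposited; actives needed confirmation, so some wells reaching 2 SD are inactive.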 Names joined by + are all predicted targets of the reagent.

Gene,DRSC id,SD above plate mean,"raw ATP luminescence, replicate 1","raw ATP luminescence, replicate 2",call
CG10887,DRSC14277,,25160,30910,inactive
CG11619,DRSC09849,,75323,55360,inactive
GluClalpha (Glutamate-gated chloride channel subunit alpha),DRSC16680,,64860,53200,inactive
Rrp40 (Ribosomal RNA processing 40),DRSC00074,,2.91e5,3.21e5,inactive
spn-A (spindle A),DRSC16812,,59720,62360,inactive
magu,DRSC06832,,81810,69623,inactive
Odc1 (Ornithine decarboxylase 1),DRSC07482,,61510,47697,inactive
CG42361,DRSC04391,,39453,41950,inactive
CG31928,DRSC00293,,97133,68490,inactive
colt (congested-like trachea),DRSC00808,,1.20e5,76277,inactive
CG5062,DRSC18385,,41590,41630,inactive
Srr (Serine racemase),DRSC16382,,49730,44873,inactive
"AspRS-m (Aspartyl-tRNA synthetase, mitochondrial)",DRSC02646,,76247,74440,inactive
CG32846,DRSC08012,,1.91e5,1.33e5,inactive
adp (adipose),DRSC06916,,61797,61210,inactive
Wdr82 (WD repeat domain 82),DRSC02595,,1.21e5,1.23e5,inactive
Rim2 (Replication in mitochondria 2),DRSC00073,,2.75e5,2.94e5,inactive
Rim2 (Replication in mitochondria 2),DRSC00520,,1.23e5,84767,inactive
mus302 (mutagen-sensitive 302),DRSC09905,,33813,32330,inactive
Srrm1 (Serine-arginine repetitive matrix 1),DRSC09835,,83163,70387,inactive
Cyp6a20 (Cytochrome P450 6a20),DRSC07380,,72273,69347,inactive
CG43325,DRSC04157,,50067,63490,inactive
CG11353,DRSC08182,,34787,32290,inactive
C3G (C3G guanyl-nucleotide exchange factor),DRSC17745,,41010,53280,inactive
C3G (C3G guanyl-nucleotide exchange factor),DRSC17929,,45470,56700,inactive
slim (scruin like at the midline),DRSC06921,,68757,68800,inactive
Arl1 (ADP ribosylation factor-like 1),DRSC09667,2 to 3 SD above plate mean,1.13e5,94423,inactive
CG34331,DRSC20679,,3.46e5,3.29e5,inactive
CG11600,DRSC14332,,56457,54363,inactive
Eato (Engulfment ABC Transporter in the ovary),DRSC01891,,97183,85033,inactive
Eato (Engulfment ABC Transporter in the ovary),DRSC03061,,66820,76287,inactive
E5,DRSC13000,,58030,63412,inactive
E5,DRSC16585,,21110,16670,inactive
Ir60a (Ionotropic receptor 60a),DRSC04212,,59777,65213,inactive
Strump (Strumpellin),DRSC09872,,78073,65190,inactive
"ScsbetaA (Succinyl-coenzyme A synthetase beta subunit, ADP-forming)",DRSC14446,,50500,24443,inactive
CG33225,DRSC03881,,69837,48787,inactive
Nf-YC (Nuclear factor Y-box C),DRSC18272,,8940,11060,inactive
SecCl (Secretory chloride channel),DRSC10887,,62357,60240,inactive
CG17169,DRSC20905,,3.25e5,3.02e5,inactive
rump (rumpelstiltskin),DRSC16480,,67753,24983,inactive
CG8545,DRSC07210,,82060,52513,inactive
sad (shadow),DRSC16630,,57437,52057,inactive
CG15483,DRSC02493,,57883,62790,inactive
CG4781,DRSC04488,2 to 3 SD above plate mean,85047,94253,active
CG30339,DRSC05168,,85523,79980,inactive
Sfxn2 (Sideroflexin 2),DRSC10718,,64650,60720,inactive
Prim2 (DNA primase subunit 2),DRSC11610,,24603,17890,inactive
CG17646,DRSC00507,,1.42e5,82600,inactive
Cap-D3 + tomb,DRSC02347,,23213,25263,inactive
CG5245,DRSC15750,,56200,44780,inactive
CG13060,DRSC09943,,48927,42873,inactive
ND-MNLL (NADH dehydrogenase (ubiquinone) MNLL subunit),DRSC18159,,26740,34500,inactive
IRSp53 (Insulin receptor substrate 53 kDa),DRSC10891,,93923,85033,inactive
Cyp305a1 (Cytochrome P450 305a1),DRSC11126,,23707,23893,inactive
KLHL18 (Kelch like family member 18),DRSC15496,at least 3 SD above plate mean,1.04e5,54990,inactive
Mdr65 (Multi drug resistance 65),DRSC11220,,93697,89180,inactive
CG10505,DRSC04075,,59123,66427,inactive
CG15432,DRSC00447,,22537,30513,inactive
Spn43Ad (Serpin 43Ad),DRSC06770,,64567,82640,inactive
Tom7 (Translocase of outer membrane 7),DRSC05135,,97443,90980,inactive
Tom7 (Translocase of outer membrane 7),DRSC07113,,49717,77630,inactive
CG5958,DRSC02915,,20523,30217,inactive
CG2124,DRSC18208,,3.62e5,3.22e5,inactive
Drep4 (DNA fragmentation factor-related protein 4),DRSC03408,,42980,79220,inactive
MFS16 (Major Facilitator Superfamily Transporter 16),DRSC04051,,55590,52727,inactive
Dis3l2 (Dis3 like 3'-5' exoribonuclease 2),DRSC08496,,46130,47803,inactive
PXo (P[[i]]-sensitive XPR1 orthologue),DRSC09734,,38677,35843,inactive
CG12560,DRSC02174,,44113,64240,inactive
Arf1 (ADP ribosylation factor 1),DRSC11606,,28073,34607,inactive
Axn (Axin),DRSC14120,,1.49e5,1.19e5,inactive
Ir20a (Ionotropic receptor 20a),DRSC20506,,3.65e5,2.86e5,inactive
CG14454,DRSC11711,,50590,46127,inactive
dachs,DRSC02072,,1.26e5,94063,inactive
dachs,DRSC02191,,36607,78873,inactive
Cht7 (Chitinase 7),DRSC08538,,31647,44477,inactive
app (approximated),DRSC09159,,1.31e5,1.72e5,inactive
app (approximated),DRSC10246,,68837,56410,inactive
app (approximated),DRSC10526,,62727,65227,inactive
CG4669,DRSC10440,,30903,30613,inactive
CG7714,DRSC16300,,64640,75180,inactive
CG9313,DRSC04540,,84787,79400,inactive
CG14422,DRSC17919,,51260,24330,inactive
Cyp6g1 (Cytochrome P450 6g1),DRSC07386,,70027,53903,inactive

Records above whose target name starts with N or n:
Gene,DRSC id,SD above plate mean,"raw ATP luminescence, replicate 1","raw ATP luminescence, replicate 2",call
Nf-YC (Nuclear factor Y-box C),DRSC18272,,8940,11060,inactive
ND-MNLL (NADH dehydrogenase (ubiquinone) MNLL subunit),DRSC18159,,26740,34500,inactive
